The data set has as its system enzymes expressed by the skin microbes. In words: Cleavability of polyol esters by skin microbes (p-nitrophenol, UV absorbance). Conditions: underarm swab, acetate buffer pH 5.6. It counts as biochemical.

Structures are written as SMILES.

`CCCCCCCCCC(=O)OCC(O)CCOc1ccc([N+](=O)[O-])cc1` (stereo not shown) [2-hydroxy-4-p-nitrophenoxybutyl decanoate]: the “cleavage of the ester by the enzymes expressed by the skin microbes” value is “cleaved in 1.5 h”.

The values are drawn from patent US20060198859A1, “Compositions with a depot effect for controlling microorganisms” (Goldschmidt GmbH, priority 2004, published 2006).
